This is an account of results in patent US20220089777A1 (ARONORA, published 2022).

Chains of the proteins cited; added tags and fusions are not shown. Lines headed by an entry give the natural chain unless they say otherwise; changes in a name come on top.
UniProt P03951: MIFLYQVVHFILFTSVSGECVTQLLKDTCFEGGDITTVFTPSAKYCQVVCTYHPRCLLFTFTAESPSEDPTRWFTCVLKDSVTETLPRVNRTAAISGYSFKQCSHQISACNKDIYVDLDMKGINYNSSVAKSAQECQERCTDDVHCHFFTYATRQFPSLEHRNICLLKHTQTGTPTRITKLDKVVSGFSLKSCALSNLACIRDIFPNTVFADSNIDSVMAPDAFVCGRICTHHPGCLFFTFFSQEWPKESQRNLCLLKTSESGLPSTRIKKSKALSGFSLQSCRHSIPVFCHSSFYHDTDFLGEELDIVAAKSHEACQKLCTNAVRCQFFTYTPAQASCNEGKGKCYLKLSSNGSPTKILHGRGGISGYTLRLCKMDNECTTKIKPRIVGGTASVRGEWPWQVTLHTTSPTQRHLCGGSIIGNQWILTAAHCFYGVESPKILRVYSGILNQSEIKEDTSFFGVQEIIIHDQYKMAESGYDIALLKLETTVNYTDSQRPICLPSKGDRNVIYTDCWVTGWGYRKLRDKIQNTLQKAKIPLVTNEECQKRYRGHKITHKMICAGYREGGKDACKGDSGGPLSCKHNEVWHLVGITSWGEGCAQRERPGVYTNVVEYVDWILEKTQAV

In the test the target is human activated coagulation factor XI (FXIa) (human) (UniProt P03951). The test is described as follows: solid phase binding assay, biotinylated AB023 on immobilized human FXIa.

Results are given in words; binding and its absence hold for the method and conditions named. Some results given as binding are weak or reduced against the parent protein; the word gives no strength.

B1: AB023, humanized anti-FXI monoclonal antibody (variant VH3/Vκ3, clone 3G3) (antibody, V domains shown)
VH: QVQLQESGPGLVKPSETLSITCTVSGFSLTGYGIYWVRQPPGKGLEWLGMIWGDGRTDYNSALKSRVTISKDNSKSQVSLKLSSVTAADTARYYCARDYYGSKDYWGQGTTVTVSS
VL: DIQMTQSPSSLSASVGDRVTITCKASQDVSTAVAWYQQKPGKAPKLLIYLTSYRNTGVPDRFSGSGSGTDFTFTISSLQPEDIAVYYCQQHYKTPYSFGGGTKVEIKR
notes: Human IgG4 with S241P (Kabat) hinge modification, kappa light chain; also called A13023; A8023
With B1, the binding entry is reported as “binds”.
